Measured values taken from US5726179A, “Muscarinic agonists” (The University of Toledo, priority 1996, dated 1998).
Counter-ions that a name gives are not always drawn. At least one structure is not confirmed: it was looked up by name or label, or the drawing left a doubt.

Experiments:
muscarinic receptors [1] = test: Binding affinity at muscarinic receptors in rat central nervous system, ligand [3H]-QNB; details: rat CNS; mean from one to three experiments, each in triplicate
muscarinic receptors [2] = test: PI cortex: agonist activity at muscarinic receptors in rat central nervous system; format: biochemical; details: mean from one to three experiments, each in triplicate

| Structure (SMILES) | IC50 (muscarinic receptors [1]) [µM] | PI cortex (at 100 μM) (muscarinic receptors [2]) [%] |
| --- | --- | --- |
| CC(C)=CCOC(=O)C1CN=CNC1 (stereo not drawn) [CDD-0176-A, 5-(2-Methylbutenyloxycarbonyl)-1,4,5,6-tetrahydropyrimidine HCl] | 38 ± 16 | 24 ± 12 |
| C#CCCc1noc(C2CN=CNC2)n1 (stereo not drawn) [CDD-0194-J, 5-(3-(Butyn-1-yl)-1,2,4-oxadiazol-5-yl)-1,4,5,6-tetrahydropyrimidine Trifluoroacetate] |  | 130 ± 18 |
